According to patent publication US9789213B2, “EGFL7 targeting and/or binding polypeptides and methods for inhibiting angiogenesis” (LONDON HEALTH SCIENCES CENTRE RESEARCH INC., priority 2012, dated 2017):
Part of at least one peptide drawing is inferred or uncertain, most often the ends. Where no end group is shown, it is not given here.

What was measured:
[1] = system: HT1080 cell-mediated angiogenesis; experiment: Directed in vivo angiogenesis assay (DIVAA); settings: 200 μM peptide in BME-filled angioreactors, subcutaneous in nude mice, 10 days
VEGFR1 = experiment: Immunoprecipitation of phosphotyrosines (4G10) and western blot in HUVECs; format: cell-based, human; settings: 200 μM, 4 hours, vs Flag peptide
[2] = system: chicken chorioallantoic membrane (CAM); experiment: In vivo avian chorioallantoic membrane (CAM) angiogenesis onplant assay; settings: CAM onplants with HT1080 cells, 200 μM final concentration, 3 days
[3] = system: human umbilical vein endothelial cell (HUVEC); experiment: In vitro angiogenesis assay: HUVEC sprouting and tube formation on Matrigel; format: cell-based; settings: VEGF and FGF present, peptide 200 mM as printed, vs FLAG peptide and water
[4] = system: EA.hy926 endothelial cells; experiment: Cell adhesion assay; format: cell-based, human; settings: 200 μM, 4 hrs, vs Flag or scramble peptide
Axl [5] = experiment: Immunoprecipitation of phosphotyrosines (4G10) and western blot in HUVECs; format: cell-based, human; settings: 200 μM, 4 hours, vs Flag peptide
[6] = system: vascular endothelial growth factor receptor (VEGF R); experiment: Phospho-RTK profiler array in HUVECs; format: cell-based, human; settings: 200 μM, 4 hrs, normalized to Flag peptide
Mer = experiment: Phospho-RTK profiler array in HUVECs; format: cell-based, human; settings: 200 μM, 4 hrs, normalized to Flag peptide
[7] = system: human endothelial cells expressing EGFL7; experiment: Peptide binding to human endothelial cells expressing EGFL7 (FIG. 3); format: cell-based; settings: for blocking of cell binding by excess unlabelled peptide: p>0.001 as printed
[8] = system: anaplastic lymphoma kinase (ALK); experiment: Phospho-RTK profiler array in HUVECs; format: cell-based, human; settings: 200 μM, 4 hrs, normalized to Flag peptide
Axl [9] = experiment: Phospho-RTK profiler array in HUVECs; format: cell-based, human; settings: 200 μM, 4 hrs, normalized to Flag peptide
Tie-2 = experiment: Phospho-RTK profiler array in HUVECs; format: cell-based, human; settings: 200 μM, 4 hrs, normalized to Flag peptide
[10] = system: EA.hy926 endothelial cells; experiment: Vinculin staining, focal adhesion formation; format: cell-based, human; settings: 200 μM, 4 hrs
[11] = system: fibroblast growth factor receptor 3 (FGFR3); experiment: Phospho-RTK profiler array in HUVECs; format: cell-based, human; settings: 200 μM, 4 hrs, normalized to Flag peptide
[12] = biological target: T1, recombinant GST-EGFL7 protein (Homo sapiens, UniProt Q9UHF1); experiment: OBOC peptide library screen ('beads on a bead') with secondary cell-based screen; format: binding; settings: hit beads from magnetic-bead screen and secondary cell-based screen
T1 construct: Magnetic nanobeads are then coated with full-length recombinant EGFL7; made in house; host or cells: Spodoptera frugiperda Sf21 (baculovirus)
T1 sequence (Q9UHF1 24-273): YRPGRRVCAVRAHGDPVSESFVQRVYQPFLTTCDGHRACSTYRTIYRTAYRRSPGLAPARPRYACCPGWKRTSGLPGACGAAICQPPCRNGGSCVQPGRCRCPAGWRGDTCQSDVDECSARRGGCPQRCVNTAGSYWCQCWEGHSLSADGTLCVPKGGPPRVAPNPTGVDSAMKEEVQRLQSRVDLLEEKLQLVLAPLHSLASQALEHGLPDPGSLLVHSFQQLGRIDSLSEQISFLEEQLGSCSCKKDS
Source text: The present invention also encompasses methods of screening polypeptides to identify those that interact with EGFL7 and modulate and EGFL7 activity and/or function. In a specific aspect, a combinatorial peptide library is screened using a “beads on a bead” approach, as set out in FIG. 1 and described in Cho et al., which is incorporated herein by reference in its entirety. […] Magnetic nanobeads are then coated with full-length recombinant EGFL7, are mixed with the peptide library, and the most highly interacting library bead “hits” are sorted using large format flow cytometry. An on-bead cell binding assay can then be used to validate the peptide hits using human endothelial cells. Validated hit peptides are then sequenced using an in-house MALDI-TOF/MS technique, and their binding affinity to EGFL7 is quantified using surface plasmon resonance (SPR) (Amadei et al. 2009, J. Mass Spectrometry, 45:241-51; U.S. Pat. Nos. 5,510,240; and 7,262,269, each of which is incorporated by reference herein in its entirety).
All fractions containing EGFL7 recombinant protein were pooled together. […] After several washing with wash buffer, the proteins were released from the magnetic beads by boiling in SDS loading buffer, and analyzed by western blot using anti-EGFL7 polyclonal antibody (R&D Systems). […]

| Substance | HT1080 cell-mediated angiogenesis in angioreactors [1] | phosphorylation of VEGFR1 (immunoprecipitation/western blot) (VEGFR1) | angiogenesis (percentage of grids with visible blood vessels) [2] | HUVEC sprouting and tube formation (number of branch points) [3] | cell adhesion (number of adhered cells) [4] | phosphorylation of Axl (immunoprecipitation/western blot) (Axl [5]) | phosphorylation of VEGF R [6] | phosphorylation of Mer (Mer) | binding to human endothelial cells expressing EGFL7 [7] | blocking of cell binding by excess unlabelled peptide [7] | phosphorylation of ALK [8] | phosphorylation of Axl (Axl [9]) | phosphorylation of Tie-2 (Tie-2) | focal adhesion formation on glass coverslip (vinculin staining) [10] | phosphorylation of FGFR3 [11] | affinity for EGFL7 in OBOC peptide library screening [12] |
| --- | --- | --- | --- | --- | --- | --- | --- | --- | --- | --- | --- | --- | --- | --- | --- | --- |
| GSLLVHSFQQLG-NH2 (C-terminus assumed) [GSLLVHSFQQLG] | inhibit | decreased | significantly inhibited | inhibited | does not alter | decreased | decreased | increased | bind | blocked by excess unlabelled peptide | decreased | decreased | increased | observed | increased |  |
| HMYFLLGH-NH2 (C-terminus assumed) [HMYFLLGH] | inhibit |  | significantly inhibited | inhibited |  |  |  |  | bind | blocked by excess unlabelled peptide |  |  |  |  |  | high affinity |
